Drawing on PubChem BioAssay AID192 (DTP/NCI, 2004), this text covers survivor count and T/C for 25 compounds.

For the assay, the system named is BDF1 mice, B16 melanoma ip, median survival T/C. The assay is described as follows: NCI In Vivo Anticancer Drug Screen. Data for tumor model B16 Melanoma (intraperitoneal) in B6D2F1 (BDF1) mice. The note with it: T/C endpoint: median survival time, higher T/C = longer survival. In a few lines: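 Antitumor activity is assessed in mice bearing a transplanted tumor, with survival or tumor size compared against vehicle-dosed controls and expressed as T/C.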

Where [1] appears, read: dose: 400.0 mg/kg/injection, schedule: Q01DX009 (ip), vehicle: saline with Tween-80.
The mark [2] stands for this setting: dose: 5.0 mg/kg/injection, schedule: Q01DX009 (ip), vehicle: saline.
Setting [3] is: dose: 100.0 mg/kg/injection, schedule: Q01DX009 (ip), vehicle: Klucel (hydroxypropylcellulose) (HPC).
Where [4] appears, read: dose: 200.0 mg/kg/injection, schedule: Q01DX009 (ip), vehicle: Klucel (hydroxypropylcellulose) (HPC).
The mark [5] stands for this setting: dose: 3.12 mg/kg/injection, schedule: Q01DX009 (ip), vehicle: saline.
[6] abbreviates: dose: 100.0 mg/kg/injection, schedule: Q01DX009 (ip), vehicle: saline.
[7] abbreviates: dose: 200.0 mg/kg/injection, schedule: Q01DX009 (ip), vehicle: saline.
Where [8] appears, read: dose: 400.0 mg/kg/injection, schedule: Q01DX009 (ip), vehicle: saline.
The mark [9] stands for this setting: dose: 50.0 mg/kg/injection, schedule: Q01DX009 (ip), vehicle: saline with Tween-80.
The mark [10] stands for this setting: dose: 400.0 mg/kg/injection, schedule: Q01DX009 (ip), vehicle: Klucel (hydroxypropylcellulose) (HPC).

Structures are written as SMILES. The list shows only some results of the screen, not a fair sample: it is rich in T/C values a quarter to a half above the control, in often repeated tests (any T/C) and in doses without a T/C. Further doses and runs are listed elsewhere. T/C gives the treated animals as a percentage of the vehicle group. Some doses have a count of surviving animals in place of a T/C: the source files T/C as zero there, which appears to mark a toxic dose or a test without result, not a measured value. Some doses without a T/C left all or most animals alive at the check, yet need not have been tolerated: the source hardly ever lists a survival T/C far under the control, and the zero likely stands for such cases as well. Survivors were counted at the toxicity check, usually on the fifth day, unless a day is given; later deaths do not show. Schedules are NCI's codes, read here as Q, the interval in days (D) or hours (H), X, the number of doses. Some entries hold several experiments; the values are given in rising order. For survival time, the PubChem record calls one and a half times the control and up active, and a quarter to a half above the control has no call in these data; cut-offs in other NCI protocols can differ. Some T/C values are followed by the survivors on the day toxicity was checked, most often the fifth; without a count, all were alive then.

On to `O=C(O)c1ccccc1C(=O)c1ccc(CBr)cc1`, for which the survivor count by setting is: (dose: 0.38 mg/kg/injection, schedule: Q01DX009 (ip), vehicle: saline with Tween-80) 10 of 10; (dose: 0.75 mg/kg/injection, schedule: Q01DX009 (ip), vehicle: saline with Tween-80) 10 of 10; (dose: 3.13 mg/kg/injection, schedule: Q04DX003 (ip), vehicle: saline with Tween-80) 10 of 10; (dose: 6.25 mg/kg/injection, schedule: Q04DX003 (ip), vehicle: saline with Tween-80) 10 of 10.
Take `CCOC(=O)Nc1ccccc1`: under “dose: 400.0 mg/kg/injection, schedule: Q04DX003 (ip), vehicle: gum acacia”, the survivor count is given as 10 of 10.
In the case of `CCCCOCN(COCCCC)C(C)Cc1ccccc1` (configuration not stated), the survivor count under setting [1] is 0 of 10 and 4 of 10.
Consider `S=C(N=Nc1ccccc1)NNc1ccccc1`, for which the survivor count runs as follows: (dose: 75.0 mg/kg/injection, schedule: Q01DX009 (ip), vehicle: saline with Tween-80) 8 of 10; (dose: 150.0 mg/kg/injection, schedule: Q01DX009 (ip), vehicle: saline with Tween-80) 4 of 10.
In the case of `NCCC(O)C(=O)NC1CC(N)C(OC2OC(CO)C(O)C(O)C2N)C(OC2OC(CO)C(O)C2O)C1O` (configuration not stated), the T/C under setting [2] was 128 % of control.
In the case of `Cc1ccc(S(=O)(=O)N/N=C/C(Br)=C(/Br)C(=O)O)cc1`, the T/C under setting [3] is 148 % of control. Further, the survivor count under setting [4] was 8 of 10.
As for `C=CCOCCN1CCN(CCCN2c3ccccc3Sc3ccc(C(F)(F)F)cc32)CC1`, the survivor count is 9 of 10 and 10 of 10 (dose: 1.25 mg/kg/injection, schedule: Q01DX009 (ip), vehicle: saline); 10 of 10 (dose: 2.5 mg/kg/injection, schedule: Q01DX009 (ip), vehicle: saline); 10 of 10 under setting [5]; 10 of 10 under setting [2]; 9 of 10 (dose: 6.25 mg/kg/injection, schedule: Q01DX009 (ip), vehicle: saline); 9 of 10 (dose: 10.0 mg/kg/injection, schedule: Q01DX009 (ip), vehicle: saline). Also, the survivor count is listed as 10 of 10 (dose: 12.5 mg/kg/injection, schedule: Q01DX009 (ip), vehicle: saline); 4 of 10 (dose: 25.0 mg/kg/injection, schedule: Q01DX009 (ip), vehicle: saline); 5 of 10 (dose: 50.0 mg/kg/injection, schedule: Q01DX009 (ip), vehicle: saline); 0 of 10 under setting [6]; 0 of 10 under setting [7]; 0 of 10 under setting [8].
With `CC(=O)Nc1ccc(CCCCc2cccc(C(=N)N)c2)cc1`, the survivor count is on record as 10 of 10 (dose: 37.5 mg/kg/injection, schedule: Q04DX003 (ip), vehicle: saline with Tween-80); 1 of 10 under setting [9]; 8 of 10 (dose: 75.0 mg/kg/injection, schedule: Q04DX003 (ip), vehicle: saline with Tween-80).
Take `O=C(CC(=O)CC(O)(C(F)(F)F)C(F)(F)F)CC(O)(C(F)(F)F)C(F)(F)F`: the survivor count runs as follows: (dose: 250.0 micrograms/kg/injection, schedule: Q01DX009 (ip), vehicle: saline with Tween-80) 9 of 10; (dose: 500.0 micrograms/kg/injection, schedule: Q01DX009 (ip), vehicle: saline with Tween-80) 10 of 10.
Regarding `CC/C(C)=C1\OC(=O)C(C)C(O)C(Cc2cccnc2)NC(=O)C(NC(=O)c2ncccc2O)C(C)OC1=O` (configuration not stated), for the setting “dose: 3.13 mg/kg/injection, schedule: Q01DX009 (ip), vehicle: saline with Tween-80”, the T/C is 149 % of control.
With `COc1cc2ccc(CCNCc3ccccc3)cc2cc1OC`, the survivor count (dose: 200.0 mg/kg/injection, schedule: Q04DX003 (ip), vehicle: saline) is 8 of 10.
With `NC(C(=O)O)c1ccc(CBr)cc1` (configuration not stated), the T/C (dose: 50.0 mg/kg/injection, schedule: Q01DX009 (ip), vehicle: acid diluted with saline) was 137 % of control [9 of 10 alive].
For the compound `c1ccc([I+]c2ccccc2)cc1`, the survivor count reads like this: (dose: 12.0 mg/kg/injection, schedule: Q01DX009 (sc), vehicle: olive oil, sesame oil, peanut oil) 10 of 10; (dose: 25.0 mg/kg/injection, schedule: Q01DX009 (sc), vehicle: olive oil, sesame oil, peanut oil) 2 of 10.
On to `Cn1c(=O)c2[nH]c(Cc3ccc4c(c3)OCO4)nc2n(C)c1=O`, for which the survivor count by setting is: (dose: 1.56 mg/kg/injection, schedule: Q01DX009 (ip), vehicle: Klucel (hydroxypropylcellulose) (HPC)) 10 of 10; (dose: 3.12 mg/kg/injection, schedule: Q01DX009 (ip), vehicle: Klucel (hydroxypropylcellulose) (HPC)) 10 of 10; (dose: 6.25 mg/kg/injection, schedule: Q01DX009 (ip), vehicle: Klucel (hydroxypropylcellulose) (HPC)) 10 of 10; (dose: 12.5 mg/kg/injection, schedule: Q01DX009 (ip), vehicle: Klucel (hydroxypropylcellulose) (HPC)) 10 of 10; (dose: 25.0 mg/kg/injection, schedule: Q01DX009 (ip), vehicle: Klucel (hydroxypropylcellulose) (HPC)) 8 of 10; (dose: 50.0 mg/kg/injection, schedule: Q01DX009 (ip), vehicle: Klucel (hydroxypropylcellulose) (HPC)) 10 of 10. The survivor count under setting [3] is 10 of 10, the survivor count under setting [4] was 7 of 10 and the survivor count under setting [10] is 5 of 10.
As for `COc1cccc2c1C(=O)c1c(O)c3c(c(O)c1C2=O)CC(O)(/C(C)=N/NC(=O)CCCCC(=O)N/N=C(\C)C1(O)Cc2c(O)c4c(c(O)c2C(OC2CC(N)C(O)C(C)O2)C1)C(=O)c1c(OC)cccc1C4=O)CC3OC1CC(N)C(O)C(C)O1` (configuration not stated), the T/C (dose: 0.75 mg/kg/injection, schedule: Q01DX009 (ip), vehicle: water) is 144 % of control. For the setting “dose: 12.0 mg/kg/injection, schedule: Q01DX009 (ip), vehicle: water”, the survivor count is listed as 10 of 10.
For the compound `Cc1c(Cl)c(Cl)c(Cl)c(Cl)c1Cl`, the survivor count under setting [3] was 9 of 10, the survivor count under setting [4] was 10 of 10 and the survivor count under setting [10] is 10 of 10.
As to `O=C(c1ccccc1Cl)N(Cc1ccccc1)c1ccccc1`, the survivor count runs as follows: under setting [4], 10 of 10; under setting [10], 4 of 10.
As for `[Cl][Hg][CH]1CCC2OC1CC[CH]2[Hg][Cl]` (configuration not stated), the survivor count is recorded as 8 of 10 (dose: 12.5 mg/kg/injection, schedule: Q01DX009 (ip), vehicle: saline with Tween-80) and 2 of 10 (dose: 25.0 mg/kg/injection, schedule: Q01DX009 (ip), vehicle: saline with Tween-80).
Turning to `O=C1CC2(C(=O)N1CN1CCCCC1)c1ccccc1-c1ccccc12`, under setting [10], the survivor count was 10 of 10.
Take `CN1C(=O)C(=Cc2ccc(O)cc2)C(=O)N(C)C1=O`: the survivor count was 10 of 10 under setting [9]; 10 of 10 (dose: 100.0 mg/kg/injection, schedule: Q01DX009 (ip), vehicle: saline with Tween-80); 10 of 10 (dose: 200.0 mg/kg/injection, schedule: Q01DX009 (ip), vehicle: saline with Tween-80); 9 of 10 under setting [1].
For `O=c1n[n+]([O-])ccn1C1OC(CO)C(O)C1O` (configuration not stated), the T/C reads like this: under setting [7], 131 % of control; under setting [8], 138 % of control. The survivor count under setting [8] is 10 of 10.
With `COc1cc2c[n+](C)c3c4cc(OC)c(OC)cc4ccc3c2cc1OC`, the survivor count runs as follows: under setting [4], 4 of 10; under setting [10], 6 of 10.
With `CCOC(=O)C(Cc1ccccc1)NP(=O)(OCCCl)OCCCl` (configuration not stated), the survivor count (dose: 400.0 mg/kg/injection, schedule: Q04DX003 (ip), vehicle: Klucel (hydroxypropylcellulose) (HPC)) is 10 of 10.
Consider `C1CC2(CCN1)SSC1(CCNCC1)S2`, for which the survivor count (dose: 400.0 mg/kg/injection, schedule: Q04DX003 (ip), vehicle: saline) is 6 of 10.
On to `CC1(C)C(=O)NC(=O)C1(C)C`, for which the survivor count reads like this: under setting [5], 10 of 10; under setting [6], 5 of 10; under setting [7], 0 of 10; under setting [8], 0 of 10.
